# Measurements as given in PubChem BioAssay AID504594 (Broad Institute, 2011).
# Out of some 2,000 compounds screened, fewer than 10 were called active.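 Rule for the calls: active = growth inhibition of at least 75% in every replicate, which also brings the mean inhibition to 75% or more; inconclusive = mean inhibition 75% or more but some replicate under 75%; inactive = the rest.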 The list shows a part of the results.
# Test: growth inhibition of PfHsp90-dependent yeast, primary screen, antimalarial PfHsp90 inhibitor project, S. cerevisiae, BacTiter-Glo luminescence (AID 504594);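 note: 0% = DMSO neutral control wells and 100% = 20 µM radicicol control wells; higher value means stronger growth inhibition because the sign is flipped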
# Conditions: S. cerevisiae expressing PfHsp90, BacTiter-Glo growth, 48 h; at 9.4 µM; active compounds read high
row,Structure (SMILES),growth inhibition
1,COc1ccc2[nH]c3c(c2c1)CCNC3C1CC=C(C)CC1 (configuration not stated),inactive: 4.09%
2,CCOC(=O)C1(CCCc2ccccc2)CCN(C2CCN(C(C)=O)CC2)CC1,inactive: 4.53%
3,NC(=O)[C@@H]1[C@@H]2C(=O)N(c3ccc(F)cc3)C(=O)[C@@H]2[C@H]2C=Cc3ccccc3N21,inactive: 2.84%
4,CN(C)CCN(Cc1cccs1)c1ccccn1,inactive: 3.92%
5,CCNC(=O)C12CCC(C)(C(=O)O1)C2(C)C (configuration not stated),inactive: -1.1%
6,COc1cc2c(cc1OC)C(c1cc3ccccc3oc1=O)=NC(C)(C)C2,inactive: -7.93%
7,COc1ccc2oc(-c3ccco3)cc(=O)c2c1,inactive: 2.21%
8,CCOc1cc2oc(=O)c3c(c2cc1Cl)CCC3,inactive: 6.37%
9,NC(=O)N1c2ccccc2C=Cc2ccccc21,inactive: -2.22%
10,COc1cc(C2NCCc3c2[nH]c2ccccc32)ccc1OC(C)C (configuration not stated),inactive: -1.68%
11,O=C(/C=C/c1ccc(F)cc1)NC(=S)N1CCCCC1c1cccnc1 (configuration not stated),inactive: 4.68%
12,O=C(c1ccc(-c2ccccc2)c(F)c1)C1CCCN(C(=O)c2cncs2)C1 (configuration not stated),inactive: 20.8%
13,COc1ccc(C(=O)COc2ccc(F)cc2)c(O)c1,inactive: -16.2%
14,COc1ccc2c(c1OC)C(=O)N1C2SC[C@H]1C(=O)NC1CC(C)(C)NC(C)(C)C1 (some centres not stated),inactive: 2.59%
15,O=C(NC1CCCCC1)c1cc2nc(-c3ccco3)cc(C(F)(F)F)n2n1,inactive: -11%
16,Cc1c(OCC(F)(F)F)ccnc1CS(=O)c1nc2ccccc2[nH]1 (configuration not stated),inactive: 4.38%
17,CC(C)OC(=O)c1ccc(NC(=O)c2cncc(Br)c2)cc1,inactive: 5.62%
18,COC(=O)c1sccc1NC(=O)Nc1ccccc1F,inactive: 2.18%
19,CCN(CC)c1ccc([C@H]2[C@@H]3CCCC[C@]3(O)CCN2CC(=O)NCc2ccco2)cc1,inactive: -0.728%
20,O=C(O)COc1ccc2occ(C(=O)c3ccccc3)c2c1,inactive: -5.05%
21,CN(C)c1ccc(Nc2c3c4c(cccc4n(C)c2=O)C(=O)c2ccccc2-3)cc1,inactive: 6.14%
22,COc1cc(-c2cccs2)cc(=O)c2c(C)oc(C)c12,inactive: -8.26%
23,O=Cc1ccccc1Oc1ccccc1,inactive: -0.351%
24,CCc1cc2c(=O)c(-c3nc(C)cs3)coc2cc1OC(C)C(=O)NCCO (configuration not stated),inactive: -1.46%
25,O=C(O)c1ccc(C(=O)C(=O)c2ccccc2)cc1,inactive: 13.8%
26,COc1ccc(CCN2CCC(Nc3nc4ccccc4n3Cc3ccc(F)cc3)CC2)cc1,inactive: 18.5%
27,O=C1CC[C@@H](CN(Cc2ccccc2)Cc2cn[nH]c2-c2cc3ccccc3o2)N1,inactive: -2.73%

# As entered above:
# Value for COc1ccc2c(c1OC)C(=O)N1C2SC[C@H]1C(=O)NC1CC(C)(C)NC(C)(C)C1 (some centres not stated) under growth inhibition: inactive: 2.59%
# Value for CN(C)c1ccc(Nc2c3c4c(cccc4n(C)c2=O)C(=O)c2ccccc2-3)cc1 under growth inhibition: inactive: 6.14%
